Screening data

From PubChem BioAssay record AID912 (NCATS, 2007).

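Uptake of anthrax lethal toxin into cultured cells, read by FRET (460/530 nm ratio) and reported from the 460 nm channel; the cell line is not named here.
Each compound was tested as a concentration series from about 0.0005 to 40 µM.
The number is the fitted AC50 of the 460 nm signal alone; lower values mean a more potent effect. A falling signal goes with compounds filed as inhibitors or cytotoxic, a rising one with activators or fluorescent compounds (inferred from the filed classes).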

Values are in nM.
Common to all entries: measured here: 460 nm channel.
This is a side read-out of the assay, for part of the compounds, not drawn at random.
Potencies fitted to partial, single-point or poorly fitting curves are rough.
The first word of each remark tells which way the curve ran; it can be opposite to the aim of the assay.

| # | SMILES | AC50 (nM) | curve |
|---|---|---|---|
| 1 | `CN(C)CC/C=C1\c2ccccc2COc2ccccc21` | 1 | rising, full curve, poor fit |
| 2 | `Cc1cc(NC(=O)CSc2nc3ccsc3c(=O)n2NC(=O)c2ccccc2)no1` | 25118 | rising, single point |
| 3 | `COc1cccc(-c2nc(CS(=O)(=O)CC(=O)NCc3ccc(Cl)cc3)c(C)o2)c1` | 15848 | falling, partial curve |
| 4 | `CCCCOc1ccccc1NC(=O)CC1Nc2ccccc2NC1=O` (stereo not drawn) | 6310 | rising, partial curve |
| 5 | `COc1ccccc1CC(=N)N1C[C@@H]2C(=O)CCC(c3ccccc3)(c3ccccc3)[C@@H]2C1` | 12589 | falling, single point |
| 6 | `Cc1ccc(S(=O)(=O)c2ccc(Cl)cc2)cc1S(=O)(=O)N1CCOCC1` | 12589 | falling, partial curve |
| 7 | `COCC(C)n1c(C)cc(C(=O)COC(=O)c2oc3ccccc3c2C)c1C` (stereo not drawn) | 12589 | falling, partial curve |
| 8 | `c1nnc2c3c4c(sc3ncn12)CCC4` | 10000 | rising, partial curve |
| 9 | `Cc1ccccc1-c1cc(NCCN2CCOCC2)ncn1` | 5012 | falling, single point |
| 10 | `O=C(Nc1ccc2sccc2c1)c1ccc(Cl)s1` | 79.43 | falling, full curve |
| 11 | `CCc1cc2c(CN3CCN(CCO)CC3)cc(=O)oc2cc1O` | 12589 | rising, partial curve |
| 12 | `COc1cccc(-c2nn(C)c3sc(C(=O)N4CCN(c5ccccn5)CC4)cc23)c1` | 12589 | falling, single point |
| 13 | `O=c1[nH]c(CSc2nnc(-c3ccco3)n2-c2ccccc2)nc2sc3c(c12)CCC3` | 31622 | rising, single point |
| 14 | `CCn1c(SCc2ccc(OC)cc2)nnc1-c1ccncc1` | 31622 | falling, partial curve |
| 15 | `O=c1cnc2cnc(N3CCNCC3)nc2n1Cc1ccc(F)cc1` | 15848 | rising, partial curve |
| 16 | `COc1ccc(C(C(O)C(=O)c2c[nH]c3ccccc23)N2CCN(c3ccc(OC)cc3)CC2)cc1` (stereo not drawn) | 5.012 | falling, full curve |
| 17 | `O=C(NCCCN1CCOCC1)c1ccc(CNS(=O)(=O)c2ccc(F)cc2)cc1` | 12589 | falling, partial curve, poor fit |
| 18 | `CCOc1ccccc1NC(=O)CC1Nc2cc(C)c(C)cc2NC1=O` (stereo not drawn) | 1995 | rising, single point |
| 19 | `Cc1cccn2c(N)c(-c3ccccc3)nc12` | 50.12 | rising, full curve, poor fit |
| 20 | `N#Cc1c2c(c(NCc3ccco3)n3c1nc1ccccc13)CCC2` | 2512 | rising, full curve, poor fit |
| 21 | `CCCN1C(=O)NC2(O)C(=O)c3ccccc3C12O` (stereo not drawn) | 12589 | rising, single point |
| 22 | `Cc1cc(C)n(CC(O)CN2c3ccccc3Sc3ccccc32)n1` (stereo not drawn) | 31622 | falling, single point |
| 23 | `Cc1ccc(-c2nnc(SCc3ccccc3F)o2)cc1` | 19952 | falling, single point |
| 24 | `Cc1noc(C)c1C(=O)N1CCC2(CCCN(C(=O)Nc3cccc(F)c3)C2)CC1` | 15.85 | falling, full curve, poor fit |
| 25 | `CCOC(=O)Cn1c(=O)oc2cc(S(=O)(=O)N(CCN(C)C)Cc3ccccc3)ccc21` | 12589 | rising, single point |
| 26 | `Cc1nc(CC(=O)O)c(-c2ccccc2)s1` | 3.981 | falling, full curve, poor fit |
| 27 | `COc1cc2c(cc1O)C(SC)=NC(C)(C)C2` | 15848 | falling, single point |
| 28 | `CN(C)c1nc(N)nc(CSc2n[nH]c(-c3ccccc3)n2)n1` | 5012 | rising, single point |
| 29 | `CCCn1nc(NC(=O)c2ccco2)c2cc3ccc(C)cc3nc21` | 10000 | rising, partial curve |
| 30 | `CCOC(=O)CCNC(=O)Nc1ccc2nc(C)n(Cc3ccccc3Cl)c(=O)c2c1` | 5012 | falling, single point |
| 31 | `O=c1c(-c2cccs2)nc2cncnc2n1Cc1ccc(F)cc1` | 12589 | rising, partial curve |
| 32 | `COc1ccc(C2OC(=O)CC2C(=O)NC2CCCCCC2)cc1OC` (stereo not drawn) | 6310 | rising, partial curve |
| 33 | `CNc1nc(Oc2ccccc2C(=O)OC)nc(SC)n1` | 3.162 | falling, full curve |
| 34 | `O=C1CCCN1CC#CCN1CCCC1` | 10000 | falling, partial curve |
| 35 | `Cc1cc(C)n2c(SCC(=O)NCc3ccco3)nnc2n1` | 63.1 | falling, full curve |
| 36 | `N#Cc1cn(Cc2cccc(Cl)c2)c2ccccc12` | 10000 | falling, single point |
| 37 | `COCCNC(=O)Cn1ncc2ccsc2c1=O` | 1000 | rising, single point |
| 38 | `COc1ncc2nc(-c3cccs3)c(=O)n(Cc3ccc(F)cc3)c2n1` | 12589 | rising, partial curve |
| 39 | `CCn1c(CCC(=O)Nc2cc(F)ccc2C)nc2cc(S(=O)(=O)N(C)C)ccc21` | 31622 | rising, single point |
| 40 | `Cn1c(=O)c(-c2cccs2)nc2cnc(N3CCOCC3)nc21` | 10000 | rising, partial curve |
| 41 | `CN1CCN(c2ncc3nc(-c4cccs4)c(=O)n(-c4ccccc4)c3n2)CC1` | 12589 | rising, partial curve |
| 42 | `CNCC[C@@H](Oc1ccccc1C)c1ccccc1` | 12589 | falling, partial curve, poor fit |
| 43 | `Cc1ccc(C(=O)Nc2ccc(S(=O)(=O)O)c3cc(S(=O)(=O)O)cc(S(=O)(=O)O)c23)cc1NC(=O)c1cccc(NC(=O)Nc2cccc(C(=O)Nc3cc(C(=O)Nc4ccc(S(=O)(=O)O)c5cc(S(=O)(=O)O)cc(S(=O)(=O)O)c45)ccc3C)c2)c1` | 12589 | falling, partial curve, poor fit |
| 44 | `Cc1cc(C)n(CCc2nc(-c3cc4ccccc4o3)cs2)n1` | 15848 | falling, partial curve |
| 45 | `CCOC(=O)c1ccccc1NC(=O)c1cc(S(=O)(=O)N2CCOCC2)ccc1F` | 1259 | rising, partial curve |
| 46 | `O=C(c1ccc(Cn2c(=O)[nH]c3ccccc3c2=O)cc1)N1CCN(c2ccccn2)CC1` | 25118 | falling, partial curve, poor fit |
| 47 | `O=C(NCc1ccccc1)c1c(F)c(F)c(F)c(F)c1F` | 1259 | rising, full curve |
| 48 | `CN1CCN(c2ncc3nc(-c4ccc(Cl)cc4)c(=O)n(C)c3n2)CC1` | 3162 | rising, full curve |
| 49 | `Cc1ccccc1OCC(=O)Nc1ccc(N2CCN(C(=O)C(C)C)CC2)c(Cl)c1` | 15848 | falling, partial curve |